The source of these data is patent publication US6759384B1 (Aventis Pharmaceuticals Inc., priority 1994, dated 2004).

A short description of this data set: general procedure: Fmoc solid-phase peptide synthesis; polystyrene resin cross-linked with 1% divinylbenzene with Rink linker; DIC/HOBt. Conditions: whole synthesis, scale of the general procedure 1 g of Rink resin (0.6 mmol NH2/g resin).

Some results are limits rather than exact numbers.

For the substance Ac-Tyr-Ile-{Ψ(CH2NH)}-Arg-Leu-Pro-NH2, the “final purity (method not given)” value (HPLC) is reported as >90%.
Turning to Cyclo(Ser-Ida)-Ile-Arg-Leu-Ala-NH2, the “final HPLC purity” value is >95%.
